# PubChem BioAssay AID686943, Drosophila RNAi Screening Center – 2013
# Test: 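Search across the genome for regulators of signalling from receptor tyrosine kinase to ERK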 (primary screen)
# Cells: Drosophila S2R+ haemocyte-like cells expressing YFP-tagged ERK (Rolled)
# Reagents: long dsRNA against Drosophila genes
# Challenge: insulin stimulation versus unstimulated cells; dose and duration not given
# Measured: 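Antibody staining for doubly phosphorylated ERK divided by ERK-YFP signal, as plate z-scores, in insulin-treated and untreated cells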
# Reading the numbers: replicate 1, z-score of dpERK with insulin: higher = more active ERK per ERK-YFP after insulin
# In all, the deposit lists about 23,000 reagents; this is a random part of those that have a named target and a result. 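Extra replicates exist only for a retested subset of genes; insulin dose and duration not given; both raised and lowered dpERK matter.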 The numbers tell different reagents against one gene apart. Further read-outs or replicates are left out here. The record does not give: the amount of reagent, the time to read-out.
target,reagent,"replicate 1, z-score of dpERK with insulin"
CG11737,1,-0.49
Pof,1,0.04
Hex-A,1,0.06
Mys45A,1,-0.34
yellow-h,1,-0.2
CG9259,1,0.1
CG12479,1,-0.96
CG15536,1,0.08
CG15536,2,0.32
Top2,1,3.06
PpD6,1,-1.03
shot,1,-3.98
shot,2,-1.46
shot,3,-0.1
GstE12,1,-1.07
CG4477,1,0.7
mRpL16,1,0.57
beat-IV,1,-0.82
beat-IV,2,0.48
Or59a,1,-0.29
CG31245,1,1.01
RagA-B,1,1.54
Ktl,1,0.23
D,1,0.27
MTA1-like,1,-2.03
MTA1-like,2,0.32
CG10802,1,0.17
CG10005,1,0.14
Rad51D,1,0.09

As entered above:
CG15536 #1, replicate 1, z-score of dpERK with insulin = 0.08
CG9259, replicate 1, z-score of dpERK with insulin: 0.1
Result for CG10802 in “replicate 1, z-score of dpERK with insulin”: 0.17

The list goes on:
target,reagent,"replicate 1, z-score of dpERK with insulin"
Xrcc2,1,1
Tsp3A,1,0.21
p23,1,-0.43
CG18473,1,-0.7
CG46385,1,-4.27
CG46385,2,0.32
Nle,1,0.51
CG16888,1,0.31
CG2061,1,-0.09
Npc2h,1,0.56
l(3)73Ah,1,-1.28
hyx,1,2.65
ND-B12,1,-0.17
Stacl,1,-2.97
Stacl,2,0.09
Stacl,3,0.59
Stacl,4,-0.12
Stacl,5,-4.46
upd3,1,0.78
upd3,2,1.01
upd3,3,0.82
CG13539,1,0.62
eEFSec,1,-0.14
LysP,1,0.08
CG17883,1,0.35
ND-51L1,1,0.26
CG15353,1,-0.32
Rbp,1,-1.29
Rbp,2,0.66
